According to patent US20060252918A1, “Use of hepatitis virus (hcv) p7 protein” (priority 2002, published 2006):
These are yes or no findings as the source states them, for the method shown. Some binding calls cover weakened binding; strength is not graded here.

By UniProt entry, the sequences of proteins in these tests, tags left out. Residues count along the entry.
UniProt O92972, residues 747-809: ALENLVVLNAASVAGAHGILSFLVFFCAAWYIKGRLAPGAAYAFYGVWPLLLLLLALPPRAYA

Legend:
[1] = target: GSTp7 fusion protein (hepatitis C virus 1B, J4 isolate) (UniProt O92972); test: self-association, transmission electron microscopy of GSTp7 in liposomes (FIG. 2)
[2] = target: GSTp7 fusion protein (hepatitis C virus 1B, J4 isolate) (UniProt O92972); test: self-association, electron microscopy

Substance: GSTp7 fusion protein (from UniProt O92972 747-809)
- binding [1]: binds
- binding [2]: binds
